Assay [1] deals with T1, SrpI encapsulin shell protein (Synpcc7942_B2662), expressed in E. coli (Synechococcus elongatus PCC 7942) (UniProt Q55032).
T1 sequence: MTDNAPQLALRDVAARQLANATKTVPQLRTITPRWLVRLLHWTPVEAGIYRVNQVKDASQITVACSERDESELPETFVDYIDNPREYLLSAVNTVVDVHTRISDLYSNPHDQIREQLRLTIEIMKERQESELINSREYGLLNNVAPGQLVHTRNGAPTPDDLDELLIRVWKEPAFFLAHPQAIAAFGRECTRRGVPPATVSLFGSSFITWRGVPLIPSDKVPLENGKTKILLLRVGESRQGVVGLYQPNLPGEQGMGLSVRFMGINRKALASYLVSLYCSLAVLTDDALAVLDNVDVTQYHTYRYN
In words: co-expression and sfGFP fluorescence of the nanocompartment band on SDS-PAGE; sfGFP fusion cargo co-expressed with the SrpI shell in E. coli; fluorescence of the high-molecular-weight band before Coomassie staining.

The chains behind the UniProt entries cited, without tags or fusion partners. Where a name states a change or a piece, a line headed by the entry shows the natural chain unless it says otherwise.
UniProt Q8KUU5: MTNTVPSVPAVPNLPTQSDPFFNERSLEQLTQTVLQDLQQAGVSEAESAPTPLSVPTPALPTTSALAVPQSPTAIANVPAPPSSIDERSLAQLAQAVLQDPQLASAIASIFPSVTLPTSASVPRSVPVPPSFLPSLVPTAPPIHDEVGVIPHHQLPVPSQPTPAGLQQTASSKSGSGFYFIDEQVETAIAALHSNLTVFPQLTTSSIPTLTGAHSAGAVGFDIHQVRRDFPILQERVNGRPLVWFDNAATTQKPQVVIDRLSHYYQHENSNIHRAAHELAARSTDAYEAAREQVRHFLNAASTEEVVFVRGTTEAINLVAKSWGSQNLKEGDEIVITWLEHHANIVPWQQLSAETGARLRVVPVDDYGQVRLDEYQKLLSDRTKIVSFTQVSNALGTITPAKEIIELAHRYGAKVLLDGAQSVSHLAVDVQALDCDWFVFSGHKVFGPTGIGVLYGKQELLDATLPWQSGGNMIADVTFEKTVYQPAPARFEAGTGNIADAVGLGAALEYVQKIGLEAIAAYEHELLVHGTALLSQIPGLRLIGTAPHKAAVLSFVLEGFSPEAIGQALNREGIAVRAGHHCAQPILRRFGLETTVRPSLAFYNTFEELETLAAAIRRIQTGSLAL

Assay [2] has as its target T2, SrpI encapsulin shell protein, endogenous in S. elongatus PCC 7942 (Synechococcus elongatus PCC 7942 (endogenous)) (UniProt Q55032).
T2 sequence: T1 sequence
The assay can be described thus: non-denaturing SDS-PAGE of lysate with LC-MS of the excised high-molecular-weight band; clarified lysates of S. elongatus PCC 7942, nutrient-replete or sulfate-starved for 24 and 48 hr; silver stain; in-gel digestion.

Assay [3] addresses T3, SrpI encapsulin shell protein with C-terminal 6X-His tag, from inclusion bodies, refolded (Synechococcus elongatus PCC 7942) (UniProt Q55032).
T3 sequence: T1 sequence
In words: cryo-EM structure; purified holo-SrpI, 2 mg/mL in 50 mM CAPS pH 10, 250 mM arginine, 150 mM NaCl, 0.05% NP-40; 2.2 Å; symmetry expansion and focused classification for cargo density; both purified.

Assay [4] concerns the target T3, SrpI encapsulin shell protein with C-terminal 6X-His tag, from inclusion bodies, refolded (Synechococcus elongatus PCC 7942). The assay can be described thus: negative stain TEM; apo-SrpI and holo-SrpI (CyD loaded by refolding) at 300 nM in 50 mM CAPS pH 10, 250 mM arginine, 150 mM NaCl; uranyl formate; 3D reconstruction without symmetry, ~18 Å; difference map; both purified.

Assay [5] has the same target. The assay can be described thus: SEC; in vitro loading: shell unfolded in guanidine hydrochloride, refolded by 100-fold dilution (50 mM CAPS pH 10, 250 mM arginine, 150 mM NaCl, 20% glycerol, 10 mM DTT) with cargo at 10:1 cargo:compartment; compartment and cargo fractions separated by SEC and read by non-denaturing (sfGFP fluorescence) and denaturing SDS-PAGE; both purified.

No constants are given. Whether binding was seen depends on the method and setting. Binding can be weak; no strength is given. For part of these data: Where a sequence is shown, tags or fusion partners need not be part of it.

Take “Entire cysteine desulfurase CyD fused to sfGFP (Synechococcus elongatus PCC 7942) (enzyme)”: in assay [1], the binding result is given as “binds”. Take “Cysteine desulfurase CyD (Synpcc7942_B2661), endogenous in S. elongatus PCC 7942 (enzyme)”: the binding entry in assay [2] is given as “binds”. In the case of “Full-length cysteine desulfurase CyD (Synpcc7942_B2661), purified (Synechococcus elongatus PCC 7942) (enzyme)”, the binding result in assay [3], in assay [4] and in assay [5] was “binds” in each case.

With “Cysteine desulfurase CyD with the N-terminal domain removed (Synechococcus elongatus PCC 7942) (domain or fragment)”, the binding entry in assay [5] is “no binding”. Regarding “First 100 amino acids of the CyD N-terminal domain fused to sfGFP (Synechococcus elongatus PCC 7942) (domain or fragment)”, the binding result in assay [1] is “binds”.

In the case of “CyD N-terminal domain (residues 1–225) fused to sfGFP (from UniProt Q8KUU5) (domain or fragment)”, the binding result in assay [1] and in assay [5] was “binds” throughout.

These data come from article PMC8049743, “Discovery and characterization of a novel family of prokaryotic nanocompartments involved in sulfur metabolism” (eLife, 2021).
